Results from cells or extracts need not show a direct contact. A negative result means that nothing was seen under these conditions. For some assays here: For at least one entry, the source does not settle the construct or the ends of the probe.
What was measured:
Assay in all cases: EMSA
Details in all cases: protein in a lysate after overexpression, label: 32P
[1] = biological target: CrxMyc (Crx) (Mus musculus) (UniProt O54751)
[2] = biological target: Brn2 (Pou3f2) (Mus musculus) (UniProt P31360)
[3] = biological target: Otx2Myc (Otx2) (Mus musculus) (UniProt P80206)
[4] = by contrast in text, relatively specific POU site
[5] = CTAATCC sites interacted only with Crx and Otx2
[6] = by contrast in text, GAAT site bound by Brn2 only
[7] = 22 C, 50 mM KCl, 10 mM Tris pH 7.5, poly(dI-dC)
[8] = by contrast in text, AAAT site bound by Brn2 only

Sequences of proteins named here, by UniProt entry; tags and fusion partners are left off. A change or cut given only in a name is not applied to a line headed by its entry.
UniProt O54751: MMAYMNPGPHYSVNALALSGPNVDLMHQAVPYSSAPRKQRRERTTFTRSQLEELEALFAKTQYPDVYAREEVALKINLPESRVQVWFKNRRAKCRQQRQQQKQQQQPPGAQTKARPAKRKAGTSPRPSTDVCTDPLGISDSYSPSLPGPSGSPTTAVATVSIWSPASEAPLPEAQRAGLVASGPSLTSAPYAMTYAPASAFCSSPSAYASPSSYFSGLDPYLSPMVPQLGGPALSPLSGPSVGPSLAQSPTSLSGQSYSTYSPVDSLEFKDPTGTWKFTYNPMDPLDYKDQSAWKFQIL
UniProt P31360, whole entry: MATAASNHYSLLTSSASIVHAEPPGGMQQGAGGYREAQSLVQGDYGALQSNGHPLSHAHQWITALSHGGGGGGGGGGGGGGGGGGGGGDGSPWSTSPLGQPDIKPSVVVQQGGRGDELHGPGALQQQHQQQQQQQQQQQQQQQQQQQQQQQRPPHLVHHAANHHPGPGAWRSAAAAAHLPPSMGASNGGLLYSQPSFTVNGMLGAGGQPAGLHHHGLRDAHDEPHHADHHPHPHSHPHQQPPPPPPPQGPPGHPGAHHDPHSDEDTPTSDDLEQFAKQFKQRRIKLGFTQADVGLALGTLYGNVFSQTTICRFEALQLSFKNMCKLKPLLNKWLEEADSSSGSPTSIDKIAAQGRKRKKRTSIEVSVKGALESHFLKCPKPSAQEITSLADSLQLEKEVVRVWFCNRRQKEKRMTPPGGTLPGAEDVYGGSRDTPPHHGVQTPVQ
UniProt P80206: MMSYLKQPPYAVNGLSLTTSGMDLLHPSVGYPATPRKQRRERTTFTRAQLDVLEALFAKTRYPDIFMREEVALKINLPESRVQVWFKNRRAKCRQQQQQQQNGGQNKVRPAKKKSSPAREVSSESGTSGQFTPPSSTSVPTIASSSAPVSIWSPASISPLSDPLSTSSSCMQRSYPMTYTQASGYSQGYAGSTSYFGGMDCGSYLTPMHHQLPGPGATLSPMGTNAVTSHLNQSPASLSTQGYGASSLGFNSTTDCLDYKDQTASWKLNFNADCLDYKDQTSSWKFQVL

Sequence: CTAGCTGCCATTAAAATATTAAAG (double strand) [Chx10 Pou3f2 site probe]
- binding result [1, 4]: no binding
- binding result ([2]; same buffer): binds
- binding result [3, 4]: no binding

Sequence: CTAGAGATAAATCTAATCGTCTCT (double strand) [Chx10 Otx site probe]
- binding result ([2]; same buffer): binds
- binding result ([3]; same buffer): binds

Sequence: CTAGAGAGCTCTAATCCCTCCACT (double strand) [Cabp5 Pitx2 site probe]
- binding result ([1]; same buffer): binds
- binding result [2, 5]: no binding
- binding result ([3]; same buffer): binds

Sequence: CTAGTAAGTAGAATTTTCCATGAGCTGT (double strand) [Cabp5 3' Brn2 site probe]
- binding result [1, 6]: no binding
- binding result ([2]; same buffer): binds
- binding result [3, 6]: no binding

Sequence: CTAGCTAAACTTTTAAATCATGAATGAAGTAGA (double strand) [Grm6 Pax6 site probe]
- binding result [1, 7]: no binding
- binding result [2, 7]: binds
- binding result [3, 7]: no binding

Sequence: CTAGTCTCTTTATCCAAAATAAGCGACT (double strand) [Chx10 Brn2 site probe]
- binding result [1, 4]: no binding
- binding result ([2]; same buffer): binds
- binding result [3, 4]: no binding

Sequence: CTAGCCCTCTTTCAAAATGTACTATC (double strand) [Cabp5 5' Brn2 site probe]
- binding result [1, 8]: no binding
- binding result ([2]; same buffer): binds
- binding result [3, 8]: no binding

Sequence: CTAGCAAATCGTTAATCTGCTAAAG (double strand) [Grm6 Crx site probe]
- binding result ([1]; same buffer): binds
- binding result ([2]; same buffer): binds
- binding result ([3]; same buffer): binds

Sequence: CTAGCTTTAATCTGTTAATGTAGT (double strand) [Grm6 Pou3f2 site probe]
- binding result ([1]; same buffer): binds
- binding result ([2]; same buffer): binds
- binding result ([3]; same buffer): binds

Sequence: CTAGTTGCCCGCTAATCCCAGCTG (double strand) [Chx10 Crx site probe]
- binding result ([1]; same buffer): binds
- binding result [2, 5]: no binding
- binding result ([3]; same buffer): binds

Sequence: CTAGCCTCACCCTAATCCCTCTTTC (double strand) [Cabp5 Crx site probe]
- binding result ([1]; same buffer): binds
- binding result [2, 5]: no binding
- binding result ([3]; same buffer): binds

Source: patent publication US20090281163
